This experiment has as its target FANCL URD-RING fragment (FANCL^UR, residues 109-375) (human) (UniProt Q9NW38). The experiment in a line: SEC.

No constants are given. Whether binding was seen depends on the method and setting.

B1: FANCL URD-RING fragment (FANCL^UR, residues 109-375) (domain or fragment, UniProt Q9NW38 109-375)
chain: QFYSSLIEEIGTLGWDKLVYADTCFSTIKLKAEDASGREHLITLKLKAKYPAESPDYFVDFPVPFCASWTPQSSLISIYSQFLAAIESLKAFWDVMDEIDEKTWVLEPEKPPRSATARRIALGNNVSINIEVDPRHPTMLPECFFLGADHVVKPLGIKLSRNIHLWDPENSVLQNLKDVLEIDFPARAILEKSDFTMDCGICYAYQLDGTIPDQVCDNSQCGQPFHQICLYEWLRGLLTSRQSFNIIFGECPYCSKPITLKMSGRKH
For the molecule B1, the binding result is recorded as “no binding”.
